Results reported in PMC6381632.
These are yes or no findings as the source states them, for the method shown. In cells and extracts the contact can be indirect. Some binding calls cover weakened binding; strength is not graded here.

Chains of the proteins cited; added tags and fusions are not shown. Residues count along the entry.
UniProt P18084, residues 24-799: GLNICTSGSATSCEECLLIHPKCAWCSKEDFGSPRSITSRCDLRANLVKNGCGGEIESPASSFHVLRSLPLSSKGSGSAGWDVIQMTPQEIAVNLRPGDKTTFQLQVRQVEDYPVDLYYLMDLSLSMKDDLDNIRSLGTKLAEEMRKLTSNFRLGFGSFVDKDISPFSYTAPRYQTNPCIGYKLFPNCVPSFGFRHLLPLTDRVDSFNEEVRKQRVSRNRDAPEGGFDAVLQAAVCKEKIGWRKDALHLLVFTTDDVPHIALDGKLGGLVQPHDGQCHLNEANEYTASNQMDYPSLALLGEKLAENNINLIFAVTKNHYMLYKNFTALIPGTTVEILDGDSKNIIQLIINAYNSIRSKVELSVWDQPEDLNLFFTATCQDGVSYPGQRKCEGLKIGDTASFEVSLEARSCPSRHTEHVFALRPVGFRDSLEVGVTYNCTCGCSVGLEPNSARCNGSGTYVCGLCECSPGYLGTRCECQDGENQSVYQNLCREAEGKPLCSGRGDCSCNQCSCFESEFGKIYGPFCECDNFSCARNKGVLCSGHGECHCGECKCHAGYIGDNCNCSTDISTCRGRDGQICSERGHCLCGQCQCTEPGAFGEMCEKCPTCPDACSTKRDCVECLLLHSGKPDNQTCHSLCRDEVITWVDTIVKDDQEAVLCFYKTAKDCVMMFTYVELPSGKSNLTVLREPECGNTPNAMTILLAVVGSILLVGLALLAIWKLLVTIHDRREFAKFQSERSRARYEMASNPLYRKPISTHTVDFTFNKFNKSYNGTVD
UniProt P08779: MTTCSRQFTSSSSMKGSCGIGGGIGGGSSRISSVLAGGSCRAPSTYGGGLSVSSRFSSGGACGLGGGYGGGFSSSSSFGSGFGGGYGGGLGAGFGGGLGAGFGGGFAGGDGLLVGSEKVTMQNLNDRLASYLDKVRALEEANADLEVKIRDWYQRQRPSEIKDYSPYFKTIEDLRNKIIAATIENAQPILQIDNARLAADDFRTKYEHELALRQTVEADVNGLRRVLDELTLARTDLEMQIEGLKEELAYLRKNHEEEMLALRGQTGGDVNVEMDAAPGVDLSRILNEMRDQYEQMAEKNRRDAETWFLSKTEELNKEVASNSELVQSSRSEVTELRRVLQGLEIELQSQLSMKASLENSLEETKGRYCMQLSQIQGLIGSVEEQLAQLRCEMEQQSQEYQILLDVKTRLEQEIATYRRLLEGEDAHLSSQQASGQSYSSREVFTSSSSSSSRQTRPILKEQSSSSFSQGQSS
UniProt P08581, residues 25-1390: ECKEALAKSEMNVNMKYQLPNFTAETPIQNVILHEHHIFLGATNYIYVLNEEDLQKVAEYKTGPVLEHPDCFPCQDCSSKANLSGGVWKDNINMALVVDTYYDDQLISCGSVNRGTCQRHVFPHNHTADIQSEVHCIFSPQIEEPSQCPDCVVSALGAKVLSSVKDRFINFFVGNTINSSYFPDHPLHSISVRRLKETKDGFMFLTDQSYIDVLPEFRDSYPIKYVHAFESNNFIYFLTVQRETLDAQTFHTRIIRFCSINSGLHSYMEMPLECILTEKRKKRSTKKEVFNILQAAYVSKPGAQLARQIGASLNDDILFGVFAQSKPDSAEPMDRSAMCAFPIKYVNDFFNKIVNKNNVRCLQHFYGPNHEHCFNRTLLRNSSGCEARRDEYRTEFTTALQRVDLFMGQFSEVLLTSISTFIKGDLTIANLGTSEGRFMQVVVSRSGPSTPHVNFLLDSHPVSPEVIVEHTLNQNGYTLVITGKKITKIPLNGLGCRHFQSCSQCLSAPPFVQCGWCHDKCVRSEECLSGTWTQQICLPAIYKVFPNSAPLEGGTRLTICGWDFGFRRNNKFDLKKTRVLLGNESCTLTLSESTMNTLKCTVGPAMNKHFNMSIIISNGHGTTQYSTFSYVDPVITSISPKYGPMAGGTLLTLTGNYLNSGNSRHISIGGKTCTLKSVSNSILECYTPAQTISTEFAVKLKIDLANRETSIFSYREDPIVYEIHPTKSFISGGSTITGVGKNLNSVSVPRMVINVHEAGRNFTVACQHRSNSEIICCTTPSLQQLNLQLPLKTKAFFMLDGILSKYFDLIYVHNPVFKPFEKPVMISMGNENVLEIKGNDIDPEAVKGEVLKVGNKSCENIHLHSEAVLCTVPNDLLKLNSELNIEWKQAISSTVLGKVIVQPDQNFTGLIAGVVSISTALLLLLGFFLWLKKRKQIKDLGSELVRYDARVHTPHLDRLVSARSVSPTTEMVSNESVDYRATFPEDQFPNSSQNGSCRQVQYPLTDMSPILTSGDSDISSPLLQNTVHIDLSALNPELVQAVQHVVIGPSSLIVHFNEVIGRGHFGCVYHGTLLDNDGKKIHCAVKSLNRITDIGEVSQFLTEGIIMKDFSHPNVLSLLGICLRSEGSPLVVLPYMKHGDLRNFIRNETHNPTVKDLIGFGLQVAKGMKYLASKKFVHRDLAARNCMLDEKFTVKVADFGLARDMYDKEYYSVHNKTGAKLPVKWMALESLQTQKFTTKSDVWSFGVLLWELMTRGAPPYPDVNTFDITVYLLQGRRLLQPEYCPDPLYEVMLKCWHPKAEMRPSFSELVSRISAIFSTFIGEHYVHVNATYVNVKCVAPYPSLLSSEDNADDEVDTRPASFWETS

Key:
[1] = molecular target: β5-integrin (human (endogenous in human OSCC lines)) (UniProt P18084); experiment: co-IP; endogenous proteins in lysates of three OSCC lines (RIPA buffer: 150 mM NaCl, 1% Nonidet P-40, 0.5% deoxycholic acid, 0.1% SDS, 50 mM Tris-HCl pH 8.0); reciprocal IP with the indicated antibodies and blotting; IgG as negative control
[2] = molecular target: keratin 16 (human (endogenous in human OSCC lines)) (UniProt P08779); experiment: as above

Substance: c-Met (from UniProt P08581 25-1390) (receptor)
- binding [1]: binds
- binding [2]: binds
